Reference: PubChem BioAssay AID504791 (Drosophila RNAi Screening Center, 2011)

Test: 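Genes of the fly required for silencing by miRNA, siRNA or endo-siRNA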 (primary screen)
Cells: Drosophila S2-derived reporter cells
Reagents: long dsRNA against Drosophila genes, about 150-250 ng dsRNA per well (siRNA assay); about 80-120 ng (miRNA assay)
Timing: about 5 days (siRNA assay); about 4 days (miRNA assay)
Challenge: copper sulfate induction of reporters: 25 µM (siRNA assay); 200 mM stated (miRNA assay), 1-2 days before reading
Measured: 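Dual luciferase assay: Renilla to firefly signal ratio in each well, scaled to the mean ratio of its plate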
Scale: siRNA reporter hit score: higher = 3 marks a strong hit with raised ratio; -3 a strong hit with lowered ratio
Call rule: 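First-pass picks had plate-scaled ratios over 1.5 for the siRNA assay, over 1.6 for the miRNA assay, or under 0.6; two distinct dsRNAs had to score alike on retest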
The screen tested about 23,000 reagents; shown is an unselected part of those that have a named target and a result. Over the whole deposit, 199 (0.86%) got an active call. 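Plate-scaled ratios behind the calls are not deposited; printed light signals are raw; many rows marked increased or decreased are still called inactive.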 A number with no mark means an inactive call. A plus sign joins genes that one reagent is predicted to hit.

| target | amplicon | siRNA reporter hit score | stable siRNA reporter change | miRNA reporter change | stable assay Renilla, run 1 (luminescence) | stable assay firefly, run 1 (luminescence) |
| --- | --- | --- | --- | --- | --- | --- |
| CG4669 | DRSC10440 | – | – | – | 7462 | 4.50e5 |
| CG14298 | DRSC14777 | – | – | – | 7585 | 5.30e5 |
| CG13074 | DRSC09957 | – | – | – | 7079 | 2.91e5 |
| CG33704 | DRSC03838 | – | – | – | 5951 | 4.04e5 |
| CG12376 | DRSC06144 | – | – | – | 8455 | 3.96e5 |
| CG15717 | DRSC19684 | – | – | – | 6434 | 5.80e5 |
| gem | DRSC06093 | – | – | – | 7395 | 3.44e5 |
| gem | DRSC06847 | – | – | – | 6019 | 4.76e5 |
| Acyp2 | DRSC15336 | – | – | – | 5616 | 3.50e5 |
| Ada | DRSC14463 | – | – | – | 5734 | 3.69e5 |
| CG40583 (retired record) | DRSC20938 | – | – | – | 3408 | 3.13e5 |
| Smyd3 | DRSC17744 | – | – | – | 7360 | 3.96e5 |
| CG7879 | DRSC08600 | – | – | – | 5431 | 2.50e5 |
| nSyb | DRSC08727 | – | – | – | 12225 | 4.28e5 |
| sut2 | DRSC07701 | – | – | – | 8985 | 4.79e5 |
| nahoda | DRSC03954 | – | – | – | 4071 | 2.73e5 |
| nahoda | DRSC04126 | – | – | – | 9029 | 1.60e6 |
| Vps8 | DRSC09705 | – | – | – | 5263 | 3.59e5 |
| Pex14 | DRSC11754 | – | – | – | 7479 | 4.43e5 |
| CG14205 | DRSC19560 | – | – | – | 5544 | 3.81e5 |
| CG14205 | DRSC28253 | – | – | reporter ratio raised past the hit cutoff | – | – |
| Lasp | DRSC10379 | – | reporter ratio raised past the hit cutoff | – | 7638 | 2.28e5 |
| CG6839 | DRSC10723 | – | – | – | 10389 | 3.83e5 |
| CG10600 | DRSC02074 | – | – | – | 6646 | 1.44e6 |
| CG17666 | DRSC10276 | – | – | – | 6727 | 3.50e5 |
| CG12817 + CG12420 | DRSC22814 | – | – | – | 4092 | 3.50e5 |
| CG3494 | DRSC04375 | – | – | – | 7244 | 4.15e5 |
| CG5787 | DRSC02895 | – | – | – | 30953 | 3.30e5 |
| UQCR-Q | DRSC10886 | – | – | – | 6983 | 5.00e5 |
| ZnT49B | DRSC07225 | – | – | – | 5223 | 2.28e5 |
| c12.2 | DRSC18751 | – | – | – | 6290 | 5.61e5 |
| FASN2 | DRSC00167 | – | – | – | 5935 | 4.32e5 |
| FASN2 | DRSC00610 | – | – | – | 2.06e5 | 1.11e5 |
| CG32262 | DRSC08165 | – | – | – | 7543 | 5.21e5 |
| Rbpn-5 | DRSC04440 | – | – | – | 27616 | 9.69e5 |
| Ac76E | DRSC09642 | – | – | – | 4851 | 4.37e5 |
| Ac76E | DRSC09662 | – | – | – | 8515 | 2.94e5 |
| CG33998 | DRSC05747 | – | – | – | 6655 | 3.47e5 |
| JTBR | DRSC08667 | – | – | – | 4907 | 3.28e5 |
| CG10226 | DRSC09715 | – | – | – | 7438 | 3.78e5 |
| Lkr | DRSC09754 | – | – | – | 6184 | 3.55e5 |
| Or67d | DRSC10158 | – | – | – | 6327 | 5.94e5 |
| CG7377 | DRSC10830 | – | – | – | 6655 | 4.47e5 |
| CG15439 | DRSC00453 | – | – | – | 4551 | 5.35e5 |
| CG33777 | DRSC08107 | – | – | – | 5276 | 5.15e5 |
| Obp83b | DRSC12360 | – | – | – | 8363 | 5.53e5 |
| Dhx15 | DRSC06036 | – | – | – | 22974 | 1.95e6 |
| OtopLa | DRSC17787 | – | – | – | 4279 | 3.61e5 |
| OtopLa | DRSC18133 | – | – | – | 5263 | 3.48e5 |
| OtopLa | DRSC23226 | – | – | – | 5298 | 2.94e5 |
| Cap-D3 + tomb | DRSC02347 | – | – | – | 8238 | 5.03e5 |
| CG11110 | DRSC06037 | – | – | – | 6427 | 5.38e5 |
| Ir8a | DRSC17817 | – | – | – | 5423 | 4.17e5 |
| Ir8a | DRSC17869 | – | – | – | 5251 | 5.37e5 |
| Sclp | DRSC19851 | – | reporter ratio lowered past the hit cutoff | – | 5739 | 6.28e5 |
| POLDIP2 | DRSC12194 | – | – | – | 7270 | 5.17e5 |
| TotE | DRSC21355 | – | – | – | 7698 | 4.60e5 |
| tzn | DRSC11755 | – | – | – | 7543 | 3.96e5 |
| Sting | DRSC06615 | – | – | – | 6168 | 4.53e5 |
| CG7488 | DRSC16250 | – | – | – | 6164 | 5.58e5 |
| knrl | DRSC11892 | – | – | – | 7282 | 2.88e5 |
| knrl | DRSC23245 | – | – | – | 4556 | 2.66e5 |
| CG1529 | DRSC20515 | – | – | – | 4367 | 4.55e5 |
| Sos | DRSC03439 | – | reporter ratio lowered past the hit cutoff | – | 5768 | 5.52e5 |
| Sos | DRSC23624 | – | – | reporter ratio lowered past the hit cutoff (active) | – | – |
| CG32944 | DRSC12138 | – | – | – | 6787 | 3.57e5 |
| CG32944 | DRSC12341 | – | – | – | 7575 | 4.80e5 |
| CG8560 | DRSC10994 | – | – | – | 9109 | 3.81e5 |
| mora | DRSC16594 | – | – | – | 5852 | 3.19e5 |
| a5 | DRSC00798 | – | – | – | 8110 | 4.85e5 |
| Lsp1gamma | DRSC08672 | – | – | – | 11298 | 4.37e5 |
| l(2)41Ab | DRSC21007 | – | – | – | 3999 | 3.95e5 |
| CG14691 | DRSC14914 | – | – | – | 6806 | 4.04e5 |
| CG7071 + Muted | DRSC16189 | – | – | – | 6759 | 3.06e5 |
| CG15841 (retired record) + Acp33A | DRSC01859 | – | – | – | 6627 | 4.16e5 |
| PCID2 | DRSC10822 | – | – | – | 11994 | 5.65e5 |
| CG32432 | DRSC11703 | 3 | reporter ratio raised past the hit cutoff | – | 5898 | 1.98e5 |
| CG32432 | DRSC11704 | – | reporter ratio raised past the hit cutoff | – | 5719 | 2.01e5 |
| CG32432 | DRSC11744 | – | – | – | 7390 | 3.81e5 |
| CG4053 | DRSC15538 | – | – | – | 2972 | 2.44e5 |
| cass | DRSC01850 | – | – | – | 1.12e5 | 2.10e6 |
| FipoQ | DRSC15413 | – | – | – | 6998 | 4.19e5 |
| CG4983 | DRSC02799 | – | – | – | 6575 | 3.50e5 |

Reprinted from above, 9 entries:
| target | amplicon | siRNA reporter hit score | stable siRNA reporter change | miRNA reporter change | stable assay Renilla, run 1 (luminescence) | stable assay firefly, run 1 (luminescence) |
| --- | --- | --- | --- | --- | --- | --- |
| tzn | DRSC11755 | – | – | – | 7543 | 3.96e5 |
| Sting | DRSC06615 | – | – | – | 6168 | 4.53e5 |
| CG7488 | DRSC16250 | – | – | – | 6164 | 5.58e5 |
| knrl | DRSC11892 | – | – | – | 7282 | 2.88e5 |
| knrl | DRSC23245 | – | – | – | 4556 | 2.66e5 |
| CG1529 | DRSC20515 | – | – | – | 4367 | 4.55e5 |
| Sos | DRSC03439 | – | reporter ratio lowered past the hit cutoff | – | 5768 | 5.52e5 |
| Sos | DRSC23624 | – | – | reporter ratio lowered past the hit cutoff (active) | – | – |
| CG32944 | DRSC12138 | – | – | – | 6787 | 3.57e5 |
